Values from PubChem BioAssay AID504786 (Drosophila RNAi Screening Center, 2011)

- Assay: 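Positive regulators of HIF-driven reporter output in Drosophila cells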 (primary screen)
- System: Drosophila S2 cells with a stable HIF luciferase reporter
- Reagents: long dsRNA against Drosophila genes, about 0.2 µg dsRNA per well of a 384-well plate
- Time to read-out: three days of knock-down, then 20 h of DFO before reading
- Challenge: desferrioxamine (DFO) at 100 µM, an iron chelator that mimics hypoxia, for 20 h
- Detection: 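HIF reporter luminescence in cells given 100 µM DFO for 20 h, using the mouse ldh-a hypoxia-response element, scored as per-plate z-scores; higher means greater loss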
- Direction: z-score: higher = stronger loss of HIF reporter signal
The deposit covers about 21,000 reagents; below is a random part of those with a known target gene and a result. 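Primary screen; positive scores mean lost reporter signal, so the sign may be inverted from the usual convention.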 Not all columns of the deposit are shown.

Target gene	DRSC id	z-score, replicate 1
TBPH (TAR DNA-binding protein-43 homolog)	DRSC04660	-0.4
CG8851	DRSC00718	-0.1
Atg17 (Autophagy-related 17)	DRSC12221	-0.3
Pnn (Pinin)	DRSC16415	-0.1
mIF3 (mitochondrial translation initiation factor 3)	DRSC06290	-0.3
Osi4 (Osiris 4)	DRSC12134	-0.3
CG8852	DRSC00719	-0.1
ng2 (new glue 2)	DRSC18803	-0.3
reb (rebuf)	DRSC06308	-0.3
wg (wingless)	DRSC03636	-0.3
CG15927	DRSC19742	-0.1
CG31259	DRSC14366	-0.3
Pten (Phosphatase and tensin homolog)	DRSC03402	-0.4
CG12963	DRSC06265	0
CG14258	DRSC14753	-0.4
swm (second mitotic wave missing)	DRSC02012	-0.3
CG5112	DRSC15718	-0.2
ITP (Ion transport peptide)	DRSC04222	-0.2
Atac2 (Ada2a-containing complex component 2)	DRSC02053	-0.3
CG31848	DRSC01309	0
Jig	DRSC14974	-0.4
Cyp4g15 (Cytochrome P450 4g15)	DRSC20240	-0.1
sv (shaven)	DRSC17221	-0.3
Hs2st (Heparan sulfate 2-O-sulfotransferase)	DRSC03348	-0.3
CG15226 (retired record)	DRSC03829	-0.1
CG15226 (retired record)	DRSC04233	-0.1
D1 (D1 chromosomal protein)	DRSC16638	-0.3
Drgx (Dorsal root ganglia homeobox)	DRSC00278	-0.3
Drgx (Dorsal root ganglia homeobox)	DRSC00537	-0.5
lncRNA:CR42646 (long non-coding RNA:CR42646)	DRSC04759	-0.4
Tip60 (Tat interactive protein 60kDa)	DRSC18661	0.1
Andorra	DRSC19475	-0.3
vir (virilizer)	DRSC04377	-0.3
CG30414	DRSC04372	-0.4
eIF4E1 (eukaryotic translation initiation factor 4E1)	DRSC11342	7.3
CDase (Ceramidase)	DRSC14932	-0.3
Spn88Eb (Serpin 88Eb)	DRSC16093	-0.1
eIF4G1 (eukaryotic translation initiation factor 4G1)	DRSC17218	7.8
OtopLa (Otopetrin-like a)	DRSC17787	-0.3
OtopLa (Otopetrin-like a)	DRSC18133	-0.2
CG11159	DRSC06050	0
CG15601	DRSC19670	-0.5
Sem1 (Suppressor of exocyst mutations 1)	DRSC02282	1.3
Prim1 (DNA primase subunit 1)	DRSC11137	0.8
axed (axundead)	DRSC08833	-0.3
axed (axundead)	DRSC10982	-0.3
eIF3f1 (eukaryotic translation initiation factor 3 subunit f1)	DRSC12328	5.1
Pebp1 (Phosphatidylethanolamine-binding protein 1)	DRSC15354	0.2
cu (curled)	DRSC15643	0
cu (curled)	DRSC15648	-0.3
RpL37-2 (Ribosomal protein L37-2)	DRSC04584	-0.4
cact (cactus)	DRSC03501	0.4
Cpr92A (Cuticular protein 92A)	DRSC16000	-0.2
CG2533	DRSC19855	-0.1
PAN2 (Poly(A)-binding protein-dependent poly(A) ribonuclease 2)	DRSC07115	-0.4
CG2750	DRSC19867	0.2
capt (capulet)	DRSC00676	-0.2
capt (capulet)	DRSC00806	-0.5
Akt (Akt kinase)	DRSC14108	0.1
l(2)dtl (lethal-(2)-denticleless)	DRSC04697	0.3
128up (upstream of RpIII128)	DRSC05027	-0.4
ppk5 (pickpocket 5)	DRSC11492	-0.3
CG12432 (retired record)	DRSC19455	-0.6
CG9270	DRSC03182	-0.3
Rcd1 (Reduction in Cnn dots 1)	DRSC07116	0.5
CG9890	DRSC04590	-0.3
run (runt)	DRSC20584	-0.2
trbd (trabid)	DRSC16494	-0.3
CG13438	DRSC06398	-0.4
CG8012	DRSC10951	-0.1
Ggamma1 (G protein gamma subunit 1)	DRSC07435	-0.5
GstS1 (Glutathione S transferase S1)	DRSC07436	-0.2
CG8079	DRSC07070	-0.3
CG8079	DRSC07071	0.1
CG9240	DRSC20177	-0.4
Tango5 (Transport and Golgi organization 5)	DRSC18023	-0.5
CG4049	DRSC04443	0.3
TyrRII (Tyramine receptor II)	DRSC15150	0.3
ver (verrocchio)	DRSC10125	-0.1
CG34046 (retired record)	DRSC14075	-0.8
PIG-G (Phosphatidylinositol glycan anchor biosynthesis class G)	DRSC06823	0.1
CG9555	DRSC03264	-0.1
CG11076	DRSC17197	-0.2

14 entries from above in another layout:
Target gene,DRSC id,"z-score, replicate 1"
Tip60 (Tat interactive protein 60kDa),DRSC18661,0.1
Andorra,DRSC19475,-0.3
vir (virilizer),DRSC04377,-0.3
CG30414,DRSC04372,-0.4
eIF4E1 (eukaryotic translation initiation factor 4E1),DRSC11342,7.3
CDase (Ceramidase),DRSC14932,-0.3
Spn88Eb (Serpin 88Eb),DRSC16093,-0.1
eIF4G1 (eukaryotic translation initiation factor 4G1),DRSC17218,7.8
OtopLa (Otopetrin-like a),DRSC17787,-0.3
OtopLa (Otopetrin-like a),DRSC18133,-0.2
CG11159,DRSC06050,0
CG15601,DRSC19670,-0.5
Sem1 (Suppressor of exocyst mutations 1),DRSC02282,1.3
Prim1 (DNA primase subunit 1),DRSC11137,0.8
